This is an account of results in the supplement of paper PMC10849652.

By UniProt entry, the sequences of proteins in these tests, tags left out. Where a name states a change or a piece, a line headed by the entry shows the natural chain unless it says otherwise.
UniProt Q13496: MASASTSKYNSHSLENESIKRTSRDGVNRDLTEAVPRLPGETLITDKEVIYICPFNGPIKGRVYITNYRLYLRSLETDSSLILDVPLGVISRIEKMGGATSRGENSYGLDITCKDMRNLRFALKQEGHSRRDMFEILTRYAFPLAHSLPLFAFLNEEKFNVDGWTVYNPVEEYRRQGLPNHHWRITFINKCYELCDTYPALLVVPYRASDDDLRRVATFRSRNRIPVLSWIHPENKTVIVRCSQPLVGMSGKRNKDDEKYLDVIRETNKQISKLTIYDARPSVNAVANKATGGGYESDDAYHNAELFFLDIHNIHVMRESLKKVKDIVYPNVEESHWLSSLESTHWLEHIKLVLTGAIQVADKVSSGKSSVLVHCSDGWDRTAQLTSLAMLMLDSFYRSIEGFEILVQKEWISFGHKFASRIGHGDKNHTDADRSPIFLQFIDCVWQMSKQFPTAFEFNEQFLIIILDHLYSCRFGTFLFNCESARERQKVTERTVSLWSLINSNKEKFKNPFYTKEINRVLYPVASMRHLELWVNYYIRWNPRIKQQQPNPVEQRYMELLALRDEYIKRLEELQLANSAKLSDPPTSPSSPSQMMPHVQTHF
UniProt P82909: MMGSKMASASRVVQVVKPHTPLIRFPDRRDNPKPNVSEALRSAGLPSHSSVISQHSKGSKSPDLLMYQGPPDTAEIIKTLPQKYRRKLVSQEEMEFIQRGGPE
UniProt Q9NVV4: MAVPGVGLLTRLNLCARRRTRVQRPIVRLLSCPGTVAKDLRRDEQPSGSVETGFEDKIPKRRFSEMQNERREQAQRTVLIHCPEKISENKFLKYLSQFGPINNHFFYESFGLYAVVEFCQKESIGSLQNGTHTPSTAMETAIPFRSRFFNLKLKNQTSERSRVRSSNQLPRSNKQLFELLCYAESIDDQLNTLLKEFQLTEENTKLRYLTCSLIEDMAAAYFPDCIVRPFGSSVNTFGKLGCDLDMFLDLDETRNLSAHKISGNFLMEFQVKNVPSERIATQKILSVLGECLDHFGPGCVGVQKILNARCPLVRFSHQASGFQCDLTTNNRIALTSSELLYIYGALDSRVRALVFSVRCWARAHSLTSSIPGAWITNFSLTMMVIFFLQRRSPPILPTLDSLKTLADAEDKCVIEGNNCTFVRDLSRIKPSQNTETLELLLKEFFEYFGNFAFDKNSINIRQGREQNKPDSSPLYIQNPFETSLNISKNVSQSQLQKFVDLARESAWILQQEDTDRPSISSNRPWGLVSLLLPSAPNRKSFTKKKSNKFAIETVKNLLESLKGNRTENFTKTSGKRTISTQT
UniProt Q8NCE2: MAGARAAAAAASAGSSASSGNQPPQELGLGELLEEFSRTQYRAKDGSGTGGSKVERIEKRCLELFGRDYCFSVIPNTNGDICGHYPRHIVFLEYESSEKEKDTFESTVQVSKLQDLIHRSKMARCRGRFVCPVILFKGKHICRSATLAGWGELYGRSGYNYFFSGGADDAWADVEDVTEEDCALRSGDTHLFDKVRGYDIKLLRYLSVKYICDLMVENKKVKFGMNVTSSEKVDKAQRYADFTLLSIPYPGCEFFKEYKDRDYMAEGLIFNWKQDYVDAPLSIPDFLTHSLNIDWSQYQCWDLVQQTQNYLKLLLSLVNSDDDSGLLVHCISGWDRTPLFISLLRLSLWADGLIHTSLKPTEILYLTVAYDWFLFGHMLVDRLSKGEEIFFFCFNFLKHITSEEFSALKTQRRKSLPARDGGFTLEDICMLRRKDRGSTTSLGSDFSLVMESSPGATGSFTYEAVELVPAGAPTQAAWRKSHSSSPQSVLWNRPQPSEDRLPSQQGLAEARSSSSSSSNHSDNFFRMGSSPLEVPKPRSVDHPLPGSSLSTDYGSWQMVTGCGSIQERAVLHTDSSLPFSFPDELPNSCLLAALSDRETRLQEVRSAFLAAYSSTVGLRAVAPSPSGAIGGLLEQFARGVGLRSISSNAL
UniProt O75431: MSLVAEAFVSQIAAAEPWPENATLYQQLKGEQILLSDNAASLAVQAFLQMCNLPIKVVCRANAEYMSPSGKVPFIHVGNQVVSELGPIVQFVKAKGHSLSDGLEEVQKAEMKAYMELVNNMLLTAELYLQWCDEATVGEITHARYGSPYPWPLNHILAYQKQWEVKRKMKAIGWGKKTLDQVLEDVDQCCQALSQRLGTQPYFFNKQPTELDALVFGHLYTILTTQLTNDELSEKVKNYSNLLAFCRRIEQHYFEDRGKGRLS
UniProt Q96S97: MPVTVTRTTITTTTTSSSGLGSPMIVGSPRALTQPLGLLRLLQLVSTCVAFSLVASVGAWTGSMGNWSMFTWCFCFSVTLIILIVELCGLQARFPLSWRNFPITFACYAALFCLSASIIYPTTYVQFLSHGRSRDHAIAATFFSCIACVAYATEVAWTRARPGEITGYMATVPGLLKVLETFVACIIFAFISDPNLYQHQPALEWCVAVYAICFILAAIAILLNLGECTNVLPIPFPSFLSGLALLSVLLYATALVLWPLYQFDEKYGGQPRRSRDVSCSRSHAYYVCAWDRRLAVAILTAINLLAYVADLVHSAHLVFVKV
UniProt Q9UM54, whole entry, looked up: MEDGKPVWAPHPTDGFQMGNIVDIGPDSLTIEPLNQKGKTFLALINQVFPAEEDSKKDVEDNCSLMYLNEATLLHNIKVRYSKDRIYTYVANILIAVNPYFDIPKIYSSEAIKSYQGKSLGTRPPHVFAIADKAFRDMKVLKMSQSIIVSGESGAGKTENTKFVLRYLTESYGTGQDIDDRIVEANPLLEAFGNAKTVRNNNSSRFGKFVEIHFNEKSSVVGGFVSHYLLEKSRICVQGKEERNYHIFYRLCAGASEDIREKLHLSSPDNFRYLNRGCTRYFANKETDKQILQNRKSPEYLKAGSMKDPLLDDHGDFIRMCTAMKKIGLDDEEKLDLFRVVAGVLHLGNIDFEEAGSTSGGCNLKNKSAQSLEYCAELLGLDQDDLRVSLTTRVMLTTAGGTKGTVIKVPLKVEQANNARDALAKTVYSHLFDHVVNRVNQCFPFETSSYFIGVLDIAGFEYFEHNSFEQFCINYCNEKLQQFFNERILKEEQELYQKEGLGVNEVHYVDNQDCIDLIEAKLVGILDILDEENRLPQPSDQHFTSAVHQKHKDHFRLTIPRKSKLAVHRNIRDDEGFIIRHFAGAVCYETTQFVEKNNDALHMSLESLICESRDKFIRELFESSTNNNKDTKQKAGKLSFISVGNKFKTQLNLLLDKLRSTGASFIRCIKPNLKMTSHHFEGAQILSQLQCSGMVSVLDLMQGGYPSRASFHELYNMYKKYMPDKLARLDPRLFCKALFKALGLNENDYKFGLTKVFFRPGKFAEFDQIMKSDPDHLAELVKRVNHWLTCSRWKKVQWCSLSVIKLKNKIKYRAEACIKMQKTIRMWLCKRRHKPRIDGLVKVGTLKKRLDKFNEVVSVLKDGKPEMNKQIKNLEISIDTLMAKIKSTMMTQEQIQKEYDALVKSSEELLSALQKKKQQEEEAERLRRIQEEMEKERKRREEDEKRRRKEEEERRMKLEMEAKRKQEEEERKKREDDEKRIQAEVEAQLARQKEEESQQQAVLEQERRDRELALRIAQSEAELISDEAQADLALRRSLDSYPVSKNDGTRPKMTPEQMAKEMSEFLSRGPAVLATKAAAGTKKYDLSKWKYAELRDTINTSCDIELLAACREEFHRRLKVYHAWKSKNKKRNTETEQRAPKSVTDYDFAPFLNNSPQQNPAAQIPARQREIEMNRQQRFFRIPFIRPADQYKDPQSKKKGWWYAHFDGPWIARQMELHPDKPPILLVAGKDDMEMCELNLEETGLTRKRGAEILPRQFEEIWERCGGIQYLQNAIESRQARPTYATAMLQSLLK
UniProt P35579, whole entry, looked up: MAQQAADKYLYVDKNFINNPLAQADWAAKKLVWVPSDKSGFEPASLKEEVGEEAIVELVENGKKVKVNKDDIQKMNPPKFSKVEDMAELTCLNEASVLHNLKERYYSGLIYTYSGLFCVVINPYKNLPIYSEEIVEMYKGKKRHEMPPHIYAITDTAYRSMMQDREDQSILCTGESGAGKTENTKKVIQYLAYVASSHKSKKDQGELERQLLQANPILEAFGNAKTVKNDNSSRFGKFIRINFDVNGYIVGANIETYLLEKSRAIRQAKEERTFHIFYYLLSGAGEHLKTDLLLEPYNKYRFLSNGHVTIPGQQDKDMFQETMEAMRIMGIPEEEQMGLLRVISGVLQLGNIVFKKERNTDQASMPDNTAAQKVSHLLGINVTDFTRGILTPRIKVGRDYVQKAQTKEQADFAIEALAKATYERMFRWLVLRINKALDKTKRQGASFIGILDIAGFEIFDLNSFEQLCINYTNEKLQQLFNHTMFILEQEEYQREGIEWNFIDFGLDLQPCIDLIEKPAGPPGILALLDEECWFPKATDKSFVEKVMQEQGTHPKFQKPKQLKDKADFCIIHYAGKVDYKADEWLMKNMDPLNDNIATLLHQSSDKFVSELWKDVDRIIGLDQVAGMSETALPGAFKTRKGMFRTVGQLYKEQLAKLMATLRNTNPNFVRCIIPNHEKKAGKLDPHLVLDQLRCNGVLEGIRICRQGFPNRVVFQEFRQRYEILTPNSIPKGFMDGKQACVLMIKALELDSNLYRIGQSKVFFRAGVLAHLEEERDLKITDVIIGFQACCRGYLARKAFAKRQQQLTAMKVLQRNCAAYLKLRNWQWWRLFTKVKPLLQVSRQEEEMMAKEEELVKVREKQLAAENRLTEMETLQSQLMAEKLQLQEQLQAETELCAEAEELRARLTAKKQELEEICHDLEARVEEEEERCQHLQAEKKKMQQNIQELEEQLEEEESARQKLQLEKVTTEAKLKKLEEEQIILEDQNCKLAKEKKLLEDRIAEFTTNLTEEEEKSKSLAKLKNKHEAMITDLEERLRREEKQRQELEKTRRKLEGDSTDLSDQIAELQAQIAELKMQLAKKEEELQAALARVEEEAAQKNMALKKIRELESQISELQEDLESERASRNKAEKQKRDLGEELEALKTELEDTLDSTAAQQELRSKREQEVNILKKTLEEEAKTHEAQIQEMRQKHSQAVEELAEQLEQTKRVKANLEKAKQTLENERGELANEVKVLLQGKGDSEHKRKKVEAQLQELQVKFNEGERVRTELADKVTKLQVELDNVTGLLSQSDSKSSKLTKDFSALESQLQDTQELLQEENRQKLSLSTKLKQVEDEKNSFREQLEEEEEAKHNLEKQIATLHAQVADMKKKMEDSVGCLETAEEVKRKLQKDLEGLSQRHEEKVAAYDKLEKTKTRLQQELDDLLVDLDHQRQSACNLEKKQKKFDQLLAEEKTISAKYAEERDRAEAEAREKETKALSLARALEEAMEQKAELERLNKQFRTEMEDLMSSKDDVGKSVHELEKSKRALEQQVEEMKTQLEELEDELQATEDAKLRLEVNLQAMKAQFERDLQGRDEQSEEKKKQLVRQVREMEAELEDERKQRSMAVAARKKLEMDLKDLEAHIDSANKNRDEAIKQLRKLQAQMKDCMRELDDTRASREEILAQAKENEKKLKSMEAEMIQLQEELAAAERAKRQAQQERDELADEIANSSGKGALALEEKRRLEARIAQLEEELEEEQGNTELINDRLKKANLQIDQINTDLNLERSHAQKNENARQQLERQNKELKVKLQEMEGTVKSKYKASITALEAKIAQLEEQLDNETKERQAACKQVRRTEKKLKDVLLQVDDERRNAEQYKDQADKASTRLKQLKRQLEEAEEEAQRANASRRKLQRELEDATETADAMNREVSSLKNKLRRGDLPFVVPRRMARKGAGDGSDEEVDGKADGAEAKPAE
UniProt Q9HD23: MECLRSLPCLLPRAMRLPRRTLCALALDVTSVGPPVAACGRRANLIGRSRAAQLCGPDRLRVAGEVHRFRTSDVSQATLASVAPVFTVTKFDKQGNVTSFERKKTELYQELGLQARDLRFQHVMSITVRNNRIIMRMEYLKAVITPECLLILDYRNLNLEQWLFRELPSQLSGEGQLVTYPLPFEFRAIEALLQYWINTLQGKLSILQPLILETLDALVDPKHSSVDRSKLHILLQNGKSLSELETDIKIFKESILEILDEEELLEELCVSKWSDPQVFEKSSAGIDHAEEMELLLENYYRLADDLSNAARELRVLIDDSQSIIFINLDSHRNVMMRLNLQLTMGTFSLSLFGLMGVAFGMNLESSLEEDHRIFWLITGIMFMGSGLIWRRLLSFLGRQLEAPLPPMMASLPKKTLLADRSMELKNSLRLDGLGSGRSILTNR
UniProt P13995: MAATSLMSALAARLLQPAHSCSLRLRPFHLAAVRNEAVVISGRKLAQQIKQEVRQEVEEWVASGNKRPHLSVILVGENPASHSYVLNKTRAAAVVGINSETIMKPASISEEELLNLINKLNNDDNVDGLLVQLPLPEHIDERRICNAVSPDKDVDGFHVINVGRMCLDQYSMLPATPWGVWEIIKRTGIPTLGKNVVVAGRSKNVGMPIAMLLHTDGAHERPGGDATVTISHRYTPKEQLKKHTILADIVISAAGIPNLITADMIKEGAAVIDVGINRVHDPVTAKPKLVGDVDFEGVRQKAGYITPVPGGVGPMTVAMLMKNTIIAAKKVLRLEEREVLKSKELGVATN

Some of the results follow.

Compound in the first assay: Cn1cncc1[C@@](N)(c1ccc(Cl)cc1)c1ccc2c(c1)c(-c1cccc(Cl)c1)cc(=O)n2C [tipifarnib]
In words: log2 fold change, soluble protein after heating vs DMSO (PISA); higher = thermal stabilisation; K562 cells, 10 uM, 30 min; active = over 0.2 and 3.5 SD of the protein, either way, in both replicates (recomputed). The method in brief: (§1)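 K562 cells at 2×10^6 cells/mL were given 10 μM compound for 30 min. Aliquots then went through 3 min of heating across 48°C-58°C, were pooled, and were extracted in PBS with 0.5% NP-40 at 4°C, and the supernatant after 21,000xg for 90 min was quantified by TMTpro 16plex LC-MS/MS with channel sums equalised. Thermal stability relative to control samples, from duplicates, is given as log2 fold change.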
As to MTM1 (UniProt Q13496), the log2 fold change is inactive: -0.025.
Turning to MRPS36 (UniProt P82909), the log2 fold change was inactive: 0.095.
Take MTRR isoform 1 (UniProt Q9UBK8): the log2 fold change is inactive: 0.027.
MRPS24 (UniProt Q96EL2): the log2 fold change was inactive: -0.035.
With MTPAP (UniProt Q9NVV4), the log2 fold change is inactive: 0.165.
As to MRPL9 (UniProt Q9BYD2), the log2 fold change was inactive: 0.081.
With MRPS30 (UniProt Q9NP92), the log2 fold change was inactive: 0.147.
Turning to MTMR14 (UniProt Q8NCE2), the log2 fold change was inactive: -0.035.
For the target MTX2 (UniProt O75431), the log2 fold change is inactive: 0.001.
As for MTA1 (UniProt Q13330), the log2 fold change is inactive: 0.062.
On the same count and under the same terms, the figure for MYADM (UniProt Q96S97) is inactive: 0.053.
Same read-out and setting: the figure for MTOR (UniProt P42345) is inactive: -0.12; for MYO6 isoform 6 (UniProt Q9UM54) it is inactive: -0.019; for MYH9 (UniProt P35579) it is inactive: -0.043.
For MRPS18A isoform 2 (UniProt Q9NVS2), the log2 fold change was inactive: 0.104.
Same read-out and setting: the same measure for MRS2 (UniProt Q9HD23): inactive: 0.002.

Compound in another assay: FC(F)(F)c1ccc(/C=C/c2nc(COc3ccc(CCCCn4ccnn4)cc3)co2)cc1 [mubritinib]
Described as above. The method in brief:
as §1
In the case of MTCH1 (UniProt Q9NZJ7), the log2 fold change is inactive: 0.015.
On the same count and under the same terms, the figure for MTHFD2 (UniProt P13995) is inactive: 0.109; for MT-CYB (UniProt P00156) it is inactive: -0.165.
Same read-out and setting: the same measure for MYH11 isoform 2 (UniProt P35749): inactive: 0.007; for MT-ATP6 (UniProt P00846): inactive: 0.028.
For the target MYO1D (UniProt O94832), the log2 fold change was inactive: -0.154.
Still for that read-out and setting: the figure for MTHFD1, A0A384N5Y3 is inactive: 0.107.
Take MRRF (UniProt Q96E11): the log2 fold change was inactive: -0.012.
Regarding MTMR12 (UniProt Q9C0I1), the log2 fold change is inactive: 0.002.
Still for that read-out and setting: the same measure for MSN (UniProt P26038): inactive: 0.043; for MSMO1 (UniProt Q15800): inactive: 0.049.
On the same count and under the same terms, the same measure for MRPS10 (UniProt P82664): inactive: 0.1.
As to MTMR6 (UniProt Q9Y217), the log2 fold change was inactive: 0.006.
MUCL1 (UniProt Q96DR8): the log2 fold change was inactive: 0.387.
In the case of MRPS2 (UniProt Q9Y399), the log2 fold change was inactive: 0.14.
MRPS15 (UniProt P82914): the log2 fold change is inactive: 0.172.
Take MRPS27 isoform 2 (UniProt Q92552): the log2 fold change is inactive: 0.119.
MSRB2 (UniProt Q9Y3D2): the log2 fold change was inactive: -0.081.
Same read-out and setting: the figure for MYCBP (UniProt Q99417) is inactive: 0.031; for MRPS11 (UniProt P82912) it is inactive: 0.164.
Same read-out and setting: the figure for MRPS33 (UniProt Q9Y291) is inactive: 0.106.
As to MRTFA (UniProt Q969V6), the log2 fold change was inactive: -0.05.
MYL6B (UniProt P14649): the log2 fold change is inactive: 0.012.
On to MTM1 (UniProt Q13496), for which the log2 fold change is inactive: 0.066.
Take MRPS36 (UniProt P82909): the log2 fold change is inactive: -0.068.
Turning to MTRR isoform 1 (UniProt Q9UBK8), the log2 fold change was inactive: 0.054.
Regarding MRPS24 (UniProt Q96EL2), the log2 fold change was inactive: 0.186.
Turning to MTPAP (UniProt Q9NVV4), the log2 fold change was inactive: -0.398.
Regarding MRPL9 (UniProt Q9BYD2), the log2 fold change is inactive: 0.077.
On the same count and under the same terms, the same measure for MRPS30 (UniProt Q9NP92): inactive: 0.071; for MTMR14 (UniProt Q8NCE2): inactive: 0.058.
MTX2 (UniProt O75431): the log2 fold change was inactive: 0.014.
The same measure, in the same setting: the same measure for MTA1 (UniProt Q13330): inactive: 0.014; for MYADM (UniProt Q96S97): inactive: -0.122.
Regarding MTOR (UniProt P42345), the log2 fold change was inactive: 0.068.
Still for that read-out and setting: the figure for MYO6 isoform 6 (UniProt Q9UM54) is inactive: 0.063; for MYH9 (UniProt P35579) it is inactive: 0.036; for MRPS18A isoform 2 (UniProt Q9NVS2) it is inactive: 0.029.
For the target MRS2 (UniProt Q9HD23), the log2 fold change is inactive: 0.002.

Compound in the next assay: NC(=O)Nc1cc(-c2cccc(F)c2)sc1C(=O)N[C@H]1CCCNC1
Described as above. The method in brief:
as §1
As for MTCH1 (UniProt Q9NZJ7), the log2 fold change is inactive: -0.016.
With MTHFD2 (UniProt P13995), the log2 fold change is inactive: -0.076.
With MT-CYB (UniProt P00156), the log2 fold change was inactive: -0.112.
Still for that read-out and setting: the same measure for MYH11 isoform 2 (UniProt P35749): inactive: 0.056; for MT-ATP6 (UniProt P00846): inactive: -0.003.
Turning to MYO1D (UniProt O94832), the log2 fold change is inactive: -0.029.
On the same count and under the same terms, the figure for MTHFD1, A0A384N5Y3 is inactive: -0.048.
Consider MRRF (UniProt Q96E11), for which the log2 fold change was inactive: -0.026.
Regarding MTMR12 (UniProt Q9C0I1), the log2 fold change was inactive: -0.001.
Take MSN (UniProt P26038): the log2 fold change was inactive: 0.042.
For the target MSMO1 (UniProt Q15800), the log2 fold change is inactive: -0.015.
As to MRPS10 (UniProt P82664), the log2 fold change is inactive: -0.014.
Still for that read-out and setting: the same measure for MTMR6 (UniProt Q9Y217): inactive: -0.064; for MUCL1 (UniProt Q96DR8): inactive: 0.305; for MRPS2 (UniProt Q9Y399): inactive: 0.105.
In the case of MRPS15 (UniProt P82914), the log2 fold change was inactive: 0.039.
Still for that read-out and setting: the same measure for MRPS27 isoform 2 (UniProt Q92552): inactive: 0.067.
Take MSRB2 (UniProt Q9Y3D2): the log2 fold change was inactive: -0.05.
The same measure, in the same setting: the figure for MYCBP (UniProt Q99417) is inactive: -0.047.
As to MRPS11 (UniProt P82912), the log2 fold change was inactive: -0.075.
For MRPS33 (UniProt Q9Y291), the log2 fold change is inactive: 0.019.
Take MRTFA (UniProt Q969V6): the log2 fold change is inactive: -0.151.
Consider MYL6B (UniProt P14649), for which the log2 fold change is inactive: -0.02.
On the same count and under the same terms, the same measure for MTM1 (UniProt Q13496): inactive: -0.013.
Regarding MRPS36 (UniProt P82909), the log2 fold change was inactive: -0.041.
For MTRR isoform 1 (UniProt Q9UBK8), the log2 fold change is inactive: -0.015.
On the same count and under the same terms, the same measure for MRPS24 (UniProt Q96EL2): inactive: -0.015; for MTPAP (UniProt Q9NVV4): inactive: 0.
In the case of MRPL9 (UniProt Q9BYD2), the log2 fold change was inactive: 0.019.
Regarding MRPS30 (UniProt Q9NP92), the log2 fold change is inactive: 0.086.
Same read-out and setting: the figure for MTMR14 (UniProt Q8NCE2) is inactive: -0.02; for MTX2 (UniProt O75431) it is inactive: -0.014.
MTA1 (UniProt Q13330): the log2 fold change is inactive: -0.025.
In the case of MYADM (UniProt Q96S97), the log2 fold change was inactive: 0.
As to MTOR (UniProt P42345), the log2 fold change was inactive: -0.016.
Regarding MYO6 isoform 6 (UniProt Q9UM54), the log2 fold change is inactive: 0.045.
On the same count and under the same terms, the figure for MYH9 (UniProt P35579) is inactive: 0.031.
Take MRPS18A isoform 2 (UniProt Q9NVS2): the log2 fold change was inactive: -0.004.
On to MRS2 (UniProt Q9HD23), for which the log2 fold change is inactive: -0.029.
